The source of these data is the supplement of paper PMC4862054.

Small differences around the control level are noise.

What all share (test): normalised response (% of control), CellTox Green; higher = less cell death (100 = DMSO, 0 = benzethonium chloride kill control)
What all share (details): incubation time: 72 h

One experiment relates to BT-474. How it is done:
(§1)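 DSRT, 72 h incubation, CellTox Green / CellTiter-Glo readout. Signal is normalised to DMSO and benzethonium chloride controls. Value is the normalised response at the lowest tested concentration.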

In a further experiment the test system is BT-549. How it is done:
as §1

A further experiment concerns CAL-120. The procedure: as §1
Another experiment relates to CAL-148. The procedure:
as §1

For the next experiment, the system named is CAL-51. The procedure:
as §1

The test system of the next experiment is CAL-85-1. The procedure:
as §1

In a further experiment the test system is DU-4475. The procedure: as §1
Another experiment has as its system HCC1143. The procedure: as §1
The test system of a further experiment is HCC1599. How it is done:
as §1

The test system of the next experiment is HCC1937. How it is done:
as §1

A further experiment concerns HDQ-P1. The procedure: as §1
In a further experiment the test system is Hs578T. How it is done: as §1
Another experiment deals with MCF-10A. The procedure: as §1
Another experiment concerns MDA-MB-231. How it is done:
as §1

The next experiment deals with MDA-MB-436. How it is done: as §1
The next experiment has as its system MDA-MB-453. How it is done:
as §1

A further experiment concerns MDA-MB-468. The procedure:
as §1

The next experiment has as its system MFM-223. The procedure: as §1

With `N[C@@H](CSC(c1ccccc1)(c1ccccc1)c1ccccc1)C(=O)O` [S-trityl-L-cysteine] (4 nM), the normalised response in the experiment with BT-474 was 98.5%; with BT-549 it was 99.4%; with CAL-120, 102%; with CAL-148 it was 103%; in the experiment with CAL-51 it was 105%; in the experiment on CAL-85-1, 92.4%. For the same compound, the normalised response in the experiment with DU-4475 is 98.9%; in the experiment with HCC1143, 97.5%; in the experiment with HCC1599, 97.6%; in the experiment with HCC1937 it was 88.9%; with HDQ-P1, 86%; in the experiment on Hs578T, 72.2%. The normalised response in the experiment on MCF-10A is 51.3%; with MDA-MB-231 it was 97.3%; in the experiment with MDA-MB-436, 106%; in the experiment with MDA-MB-453, 105%; in the experiment on MDA-MB-468 it was 104%; with MFM-223, 94.4%.
